Measured values published in US20070077215A1, “Administration of phenylfurymethylthiazolidine-2,4-dione or phenylthienymethylthiazolidine-2,4-dione compounds for promoting and/or inducing and/or stimulating the pigmentation of keratinous substances and/or limiting their depigmentation and/or their whitening” (L'OREAL, priority 2005, published 2007).

Assay: Comparative test of coloring of bleached locks of hair
Details: 100 mg product in water/ethanol/aqueous ammonia (salt form), lock impregnated, 40° C. for 1 hour

For O=C1N=C(O)C(Cc2ccc(-c3ccc(C(=O)O)cc3)o2)S1 (centres unmarked) [compound according to the invention], the “coloring of locks of hair by the product” value was “in contrast”.
With O=C1N=C(O)/C(=C/c2ccc(-c3ccc(C(=O)O)cc3)o2)S1 [compound according to the prior art, Ionic compound derived from 4-{5-[(2,4-disulfo-1,3-thiazolidin-5-ylidene)methyl]-2-furyl}benzoic acid (Z isomer), reference compound] the “coloring of locks of hair by the product” value was “colors the locks of hair”.
